Results as given in paper PMC13444138.
For at least one entry, the source does not settle the construct or the ends of the probe. For some of these results: Negatives hold for the conditions tested.

Protein sequences, listed by entry. Tags and fused reporters are not part of them. Lines headed by an entry give the natural chain unless they say otherwise; changes in a name come on top.
UniProt Q68DE3: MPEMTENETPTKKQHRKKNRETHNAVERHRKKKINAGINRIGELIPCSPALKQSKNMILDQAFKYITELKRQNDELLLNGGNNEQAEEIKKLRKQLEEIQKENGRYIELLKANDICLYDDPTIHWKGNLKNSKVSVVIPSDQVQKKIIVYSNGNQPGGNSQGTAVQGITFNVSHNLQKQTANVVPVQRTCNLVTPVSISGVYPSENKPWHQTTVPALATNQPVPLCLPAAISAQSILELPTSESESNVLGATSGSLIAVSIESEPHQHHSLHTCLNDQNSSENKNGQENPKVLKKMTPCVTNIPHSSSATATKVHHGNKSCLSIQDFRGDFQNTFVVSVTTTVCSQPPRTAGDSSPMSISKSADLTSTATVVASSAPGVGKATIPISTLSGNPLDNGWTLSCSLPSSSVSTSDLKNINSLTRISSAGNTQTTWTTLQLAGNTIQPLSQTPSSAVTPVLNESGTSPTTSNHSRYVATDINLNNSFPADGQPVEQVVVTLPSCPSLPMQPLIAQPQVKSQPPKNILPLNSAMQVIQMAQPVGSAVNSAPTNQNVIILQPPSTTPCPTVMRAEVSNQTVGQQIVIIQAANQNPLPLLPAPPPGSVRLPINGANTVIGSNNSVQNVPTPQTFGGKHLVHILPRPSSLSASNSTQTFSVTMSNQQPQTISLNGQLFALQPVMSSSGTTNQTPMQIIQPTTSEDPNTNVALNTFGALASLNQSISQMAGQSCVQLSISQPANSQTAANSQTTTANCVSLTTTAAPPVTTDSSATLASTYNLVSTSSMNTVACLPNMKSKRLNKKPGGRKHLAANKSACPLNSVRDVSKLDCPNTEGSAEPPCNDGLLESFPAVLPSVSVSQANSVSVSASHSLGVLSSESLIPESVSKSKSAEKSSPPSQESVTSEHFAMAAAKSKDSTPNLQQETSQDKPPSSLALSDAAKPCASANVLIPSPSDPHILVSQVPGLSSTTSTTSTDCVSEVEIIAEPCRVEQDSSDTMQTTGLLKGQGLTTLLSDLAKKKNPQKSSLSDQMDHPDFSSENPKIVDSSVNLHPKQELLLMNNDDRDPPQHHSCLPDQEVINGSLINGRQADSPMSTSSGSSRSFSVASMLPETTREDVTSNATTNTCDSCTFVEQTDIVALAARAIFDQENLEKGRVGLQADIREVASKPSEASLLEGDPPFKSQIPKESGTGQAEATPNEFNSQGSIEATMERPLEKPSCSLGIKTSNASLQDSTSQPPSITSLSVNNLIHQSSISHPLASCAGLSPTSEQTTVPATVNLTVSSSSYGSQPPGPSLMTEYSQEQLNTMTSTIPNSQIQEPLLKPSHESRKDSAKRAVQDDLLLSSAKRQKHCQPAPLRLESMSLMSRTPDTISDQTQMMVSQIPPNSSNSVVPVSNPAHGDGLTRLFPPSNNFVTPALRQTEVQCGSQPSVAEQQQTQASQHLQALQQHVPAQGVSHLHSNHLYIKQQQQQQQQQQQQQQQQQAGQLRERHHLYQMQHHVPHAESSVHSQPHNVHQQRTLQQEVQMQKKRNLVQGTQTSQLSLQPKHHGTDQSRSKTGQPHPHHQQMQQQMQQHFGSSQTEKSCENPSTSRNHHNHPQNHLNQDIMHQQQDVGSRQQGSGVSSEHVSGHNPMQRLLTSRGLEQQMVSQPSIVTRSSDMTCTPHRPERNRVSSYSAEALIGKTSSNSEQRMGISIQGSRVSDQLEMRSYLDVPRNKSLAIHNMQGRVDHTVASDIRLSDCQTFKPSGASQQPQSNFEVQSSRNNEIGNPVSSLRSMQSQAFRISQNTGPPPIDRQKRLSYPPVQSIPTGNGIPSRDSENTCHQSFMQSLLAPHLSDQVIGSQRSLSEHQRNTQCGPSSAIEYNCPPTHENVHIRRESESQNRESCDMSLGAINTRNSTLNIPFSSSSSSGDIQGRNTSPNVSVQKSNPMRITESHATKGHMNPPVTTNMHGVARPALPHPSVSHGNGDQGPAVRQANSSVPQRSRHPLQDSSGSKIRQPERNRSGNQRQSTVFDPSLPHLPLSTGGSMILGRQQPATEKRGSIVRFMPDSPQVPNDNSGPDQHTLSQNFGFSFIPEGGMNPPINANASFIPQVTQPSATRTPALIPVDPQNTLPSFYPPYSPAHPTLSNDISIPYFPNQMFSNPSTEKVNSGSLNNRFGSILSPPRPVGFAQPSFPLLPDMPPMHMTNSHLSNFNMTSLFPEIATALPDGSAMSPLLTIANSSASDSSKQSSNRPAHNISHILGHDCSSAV
UniProt Q9H4Q3: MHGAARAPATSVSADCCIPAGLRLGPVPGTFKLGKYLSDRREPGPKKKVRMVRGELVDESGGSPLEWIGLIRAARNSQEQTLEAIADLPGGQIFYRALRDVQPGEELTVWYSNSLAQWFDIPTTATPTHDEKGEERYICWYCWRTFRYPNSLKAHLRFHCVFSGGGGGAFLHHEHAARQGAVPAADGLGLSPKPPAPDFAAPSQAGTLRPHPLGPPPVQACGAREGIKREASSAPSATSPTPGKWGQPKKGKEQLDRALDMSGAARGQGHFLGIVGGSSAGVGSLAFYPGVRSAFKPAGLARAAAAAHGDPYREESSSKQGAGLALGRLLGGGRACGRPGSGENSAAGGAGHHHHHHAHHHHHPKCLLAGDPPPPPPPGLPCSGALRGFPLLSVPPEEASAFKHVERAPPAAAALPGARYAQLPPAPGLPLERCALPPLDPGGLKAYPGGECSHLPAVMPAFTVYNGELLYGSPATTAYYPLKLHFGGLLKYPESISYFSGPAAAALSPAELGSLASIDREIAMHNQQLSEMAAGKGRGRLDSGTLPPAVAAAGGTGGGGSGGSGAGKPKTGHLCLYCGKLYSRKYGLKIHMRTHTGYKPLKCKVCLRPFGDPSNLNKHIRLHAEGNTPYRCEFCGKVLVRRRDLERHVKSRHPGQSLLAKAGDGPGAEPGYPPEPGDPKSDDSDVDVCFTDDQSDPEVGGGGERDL

What was measured:
USF3-GFP (human) = USF3-GFP (human) (UniProt Q68DE3); assay: EMSA; settings: TF EMSA: 10 mM Tris-HCl (pH not given), 10 mM NaCl, 40 mM KCl, 1 mM MgCl2, 1 mM EDTA, 1 mM DTT, 0.05 mg/mL BSA, 80 ng poly-dIdC, 0.1 pmol probe, 15 min RT, gel at 4 C, protein translated in vitro, protein details: GFP fusion, label: 5' Cy5 on strand 1
PRDM13-GFP (human) = PRDM13-GFP (human) (UniProt Q9H4Q3); assay: EMSA; settings: TF EMSA: 10 mM Tris-HCl (pH not given), 10 mM NaCl, 40 mM KCl, 1 mM MgCl2, 1 mM EDTA, 1 mM DTT, 0.05 mg/mL BSA, 80 ng poly-dIdC, 0.1 pmol probe, 15 min RT, gel at 4 C, protein translated in vitro, protein details: GFP fusion, label: 5' Cy5 on strand 1

## GGGGTACTGTGGAGATAGAGTAAAGATCCTAAGGTCTAACCCACGTGGCCAGATGTAGAGAAACTCCCTGAGACC (double strand) [USF3 probe, methylated]
USF3-GFP (human); methylated probe, 5mC at the single CpG (C44 of strand 1; complementary C presumed)
  binding result: no binding

## GGGGTACTGTGGAGATAGAGTAAAGATCCTAAGGTCTAACCCACGTGGCCAGATGTAGAGAAACTCCCTGAGACC (double strand) [USF3 probe, unmethylated]
USF3-GFP (human); unmethylated probe
  binding result: binds

## GGGGTACTGTGGAGATAGAGTAAAGATCCTATAGGTCTAGCAGGTGGCAGATGTATAGAGAAACTCCCTGAGACC (double strand) [PRDM13 no CG probe]
PRDM13-GFP (human)
  binding result: binds

## GGGGTACTGTGGAGATAGAGTAAAGATCCTATAGGTCTAGCGGGTGGCAGATGTATAGAGAAACTCCCTGAGACC (double strand) [PRDM13 methyl plus probe, methylated]
PRDM13-GFP (human); methylated probe, 5mC at the single CpG (C41 of strand 1; complementary C presumed)
  binding result: binds
